# Measurements reported in PubChem BioAssay AID686937 (Drosophila RNAi Screening Center, 2013).
# Purpose: 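Knock-downs that reduce output of a secreted reporter enzyme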 (primary screen)
# Cell system: Drosophila S2 cells expressing secreted horseradish peroxidase
# Reagent: long dsRNA against Drosophila genes
# Duration: about 5.5 days (5 days dsRNA, then 12 h reporter induction)
# Challenge: reporter expression induced after 5 days of dsRNA, read 12 h later; inducer not stated
# Measurement: 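After 5 days of dsRNA and 12 h of reporter induction, medium peroxidase read by chemiluminescence and scored as per-plate z-score; higher values mean more reporter released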
# Reading the numbers: z-score: higher = more reporter secreted into medium
# The deposit covers about 23,000 reagents; below is a random part of those that have a named target and a result. 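Reduced-secretion tags in replicate 1 do not always agree with the z-scores; no criterion for assigning the tags was given.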 The numbers tell different reagents against one gene apart. A plus sign joins genes that one reagent is predicted to hit. Not stated in the record: the amount of reagent.
predicted target,reagent,"z-score, replicate 1","z-score, replicate 2","z-score, replicate 3","z-score, replicate 4","phenotype, replicate 1"
MED20 (Mediator complex subunit 20),1,-0.84,-0.87,,,
CG17784,1,0.28,0.4,,,
RluA-1 (RluA pseudouridine synthase 1),1,0.01,0.14,,,
RluA-1 (RluA pseudouridine synthase 1),2,0.01,0.15,,,
Bgb,1,-0.97,-0.93,,,
sing (singles bar),1,0.34,0.43,,,
CG11248,1,0.3,0.17,,,
nullo,1,0.22,0.34,,,
Chs2 (Chitin synthase 2),1,0.01,0.08,,,
CG5065,1,0.03,0.4,,,
CG10053,1,0.37,0.18,,,
CG10984,1,-0.04,0.15,,,
CG33500,1,-2.49,-2.02,,,reduced secretion
Gr43a (Gustatory receptor 43a),1,0.29,0.22,,,
Irk1 (Inwardly rectifying potassium channel 1),1,0.4,0.38,,,
Irk1 (Inwardly rectifying potassium channel 1),2,0.1,0.06,,,
Ets65A (Ets at 65A),1,0.32,0.18,,,
Ets65A (Ets at 65A),2,0.58,0.5,,,
Ets65A (Ets at 65A),3,0.39,0.16,,,
scpr-A + scpr-C + scpr-B,1,0.38,0.34,,,
Idgf6 (Imaginal disc growth factor 6),1,0.33,0.45,,,
dgt5 (dim gamma-tubulin 5),1,0.51,0.42,,,
Jhbp12 (Juvenile hormone binding protein 12),1,0.11,0.23,,,
Ir94e (Ionotropic receptor 94e),1,-1.23,0.54,0.54,-0.91,
Hmgcr (HMG Coenzyme A reductase),1,-6.64,-5,,,reduced secretion
CG5731,1,-2.71,-0.12,,,reduced secretion
Cox17 (Cytochrome c oxidase copper chaperone COX17),1,0.33,0.13,,,
eIF4E4 (eukaryotic translation initiation factor 4E4),1,0.6,-0.15,,,
SelG (Selenoprotein G),1,0.05,0.25,,,
snu (snustorr),1,0.29,0.51,,,
CG13016,1,0.38,0,,,
CG4502,1,-0.69,-1.15,,,
CG9427,1,0.53,0.52,,,
CG3491,1,-1.06,-0.92,,,
Or65a (Odorant receptor 65a),1,-0.17,0.33,,,
CG7872,1,0.47,0.46,,,
CG13124,1,0.39,0.3,,,
Cpr64Ad (Cuticular protein 64Ad),1,0.37,0.22,,,
CG9360,1,0.24,0.31,,,
Antp (Antennapedia),1,0.22,-0.61,,,
CG1494,1,0.64,0.49,,,
CG6149,1,0.26,0.3,,,
CG33673,1,0.44,0.4,,,
RpL36A (Ribosomal protein L36A),1,-1.76,-4.12,,,reduced secretion
CG42811,1,0.26,0.32,,,
fwe (flower),1,0.48,0.3,,,
fwe (flower),2,0.34,0.44,,,
fwe (flower),3,1.38,0.02,,,
CG33462,1,-0.38,-0.58,,,
rumpel,1,0.21,0.36,,,
GM130 (Golgi matrix protein 130 kD),1,-0.19,0.28,,,
CG10505,1,0.04,0.36,,,
CG1136,1,0.22,0.19,,,
GstE9 (Glutathione S transferase E9),1,0.22,0.17,,,
betaTub65B (beta-Tubulin at 65B),1,0.43,0.32,,,
CG4896,1,0.23,0.1,,,
CG3927,1,0.28,0.46,,,
CG3927,2,0.06,0.15,,,
CG7841,1,0.31,0.09,,,
CG13066,1,0.4,0.26,,,
CG5645,1,-0.25,-0.35,,,
CG3842,1,0.46,0.44,,,
Sas-6 (Spindle assembly abnormal 6),1,0.05,0.36,,,
CG34169,1,0.05,0.27,,,
CG32036,1,0.48,-0.14,,,
CG42240,1,-0.87,-0.06,0.12,-1.08,reduced secretion
nompA (no mechanoreceptor potential A),1,0.37,0.4,,,
CG5662,1,-1.75,-0.07,,,
Abcd1 (ATP binding cassette subfamily D member 1),1,-0.1,0.34,,,
CG15306,1,0.45,0.28,,,
CG15306,2,0.32,0.47,0.46,0.22,
exex (extra-extra),1,0.2,0.16,,,
HIP + HIP-R,1,0.28,0.19,,,
l(3)72Dp (lethal (3) 72Dp),1,0.18,0.06,,,
CG5697,1,0.25,-0.56,,,
CG8320 + ATPCL,1,0.6,0.2,,,
CG43074,1,-0.25,0.16,,,
Lrr47 (Leucine-rich repeat 47),1,-0.61,0.31,,,
CG32069 + Blos2,1,-0.99,-1.25,,,
BtbVII (BTB-protein-VII),1,0.35,-0.2,,,
BtbVII (BTB-protein-VII),2,-0.76,0.16,,,
hth (homothorax),1,0.16,0.2,,,

7 neighbouring records from above, for reference:
predicted target,reagent,"z-score, replicate 1","z-score, replicate 2","z-score, replicate 3","z-score, replicate 4","phenotype, replicate 1"
fwe (flower),3,1.38,0.02,,,
CG33462,1,-0.38,-0.58,,,
rumpel,1,0.21,0.36,,,
GM130 (Golgi matrix protein 130 kD),1,-0.19,0.28,,,
CG10505,1,0.04,0.36,,,
CG1136,1,0.22,0.19,,,
GstE9 (Glutathione S transferase E9),1,0.22,0.17,,,
